PMC10163693
These are yes or no findings as the source states them, for the method shown. Tags and fused reporters may be left off the sequences shown.

Chains of the proteins cited; added tags and fusions are not shown. Residues count along the entry.
His-Sumo-YAP1^WW1 (residues 174-204) (P46937, residues 174-204): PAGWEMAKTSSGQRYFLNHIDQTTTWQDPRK
His-Sumo-YAP1^WW2 (residues 227-266) (P46937, residues 227-266): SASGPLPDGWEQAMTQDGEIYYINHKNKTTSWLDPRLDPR

Target: T1, GST-NF1^AAAA (GST-NF1^PPQY with the four PPQY residues replaced by alanine) (UniProt P21359)
T1 sequence: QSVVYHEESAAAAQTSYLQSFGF
Assay: pull-down; GST, GST-NF1^PPQY or GST-NF1^AAAA prebound on Glutathione Sepharose beads; increasing amounts of His-Sumo-YAP1^WW1 or His-Sumo-YAP1^WW2 added; 20 mM Tris pH 8.0, 150 mM NaCl, 2 h, 4 °C; eluted with 10 mM GSH; SDS-PAGE, Coomassie blue; both purified

Question: “His-Sumo-YAP1^WW2 (residues 227-266) (from UniProt P46937 227-266) (domain or fragment)” was tested. Which binding did it give?
Answer: Its binding is “no binding”.

Question: Which binding does the source give for “His-Sumo-YAP1^WW1 (residues 174-204) (from UniProt P46937 174-204) (domain or fragment)” here?
Answer: Its binding is “no binding”.
